The other results are listed elsewhere or left out.
Compound: Cc1cc(ccc1-c1ccccc1)C(=O)N1CCCN(CC1)C(=O)CCl [compound 10]
Experiment: probe-labelled cysteine peptide fold change vs DMSO (competition) (log2 fold change); higher = less target engagement (more negative = stronger competition)
Conditions: THP-1, incubation time: 4 h
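Note: competitive profiling in live THP-1 cells: cysteine peptides tagged with an iodoacetamide desthiobiotin (IA-DTB) probe, intensity after compound treatment relative to DMSO-treated cells.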

Amino acid sequences for entries named in this document (tags omitted). A change or cut given only in a name is not applied to a line headed by its entry.
UniProt O75717: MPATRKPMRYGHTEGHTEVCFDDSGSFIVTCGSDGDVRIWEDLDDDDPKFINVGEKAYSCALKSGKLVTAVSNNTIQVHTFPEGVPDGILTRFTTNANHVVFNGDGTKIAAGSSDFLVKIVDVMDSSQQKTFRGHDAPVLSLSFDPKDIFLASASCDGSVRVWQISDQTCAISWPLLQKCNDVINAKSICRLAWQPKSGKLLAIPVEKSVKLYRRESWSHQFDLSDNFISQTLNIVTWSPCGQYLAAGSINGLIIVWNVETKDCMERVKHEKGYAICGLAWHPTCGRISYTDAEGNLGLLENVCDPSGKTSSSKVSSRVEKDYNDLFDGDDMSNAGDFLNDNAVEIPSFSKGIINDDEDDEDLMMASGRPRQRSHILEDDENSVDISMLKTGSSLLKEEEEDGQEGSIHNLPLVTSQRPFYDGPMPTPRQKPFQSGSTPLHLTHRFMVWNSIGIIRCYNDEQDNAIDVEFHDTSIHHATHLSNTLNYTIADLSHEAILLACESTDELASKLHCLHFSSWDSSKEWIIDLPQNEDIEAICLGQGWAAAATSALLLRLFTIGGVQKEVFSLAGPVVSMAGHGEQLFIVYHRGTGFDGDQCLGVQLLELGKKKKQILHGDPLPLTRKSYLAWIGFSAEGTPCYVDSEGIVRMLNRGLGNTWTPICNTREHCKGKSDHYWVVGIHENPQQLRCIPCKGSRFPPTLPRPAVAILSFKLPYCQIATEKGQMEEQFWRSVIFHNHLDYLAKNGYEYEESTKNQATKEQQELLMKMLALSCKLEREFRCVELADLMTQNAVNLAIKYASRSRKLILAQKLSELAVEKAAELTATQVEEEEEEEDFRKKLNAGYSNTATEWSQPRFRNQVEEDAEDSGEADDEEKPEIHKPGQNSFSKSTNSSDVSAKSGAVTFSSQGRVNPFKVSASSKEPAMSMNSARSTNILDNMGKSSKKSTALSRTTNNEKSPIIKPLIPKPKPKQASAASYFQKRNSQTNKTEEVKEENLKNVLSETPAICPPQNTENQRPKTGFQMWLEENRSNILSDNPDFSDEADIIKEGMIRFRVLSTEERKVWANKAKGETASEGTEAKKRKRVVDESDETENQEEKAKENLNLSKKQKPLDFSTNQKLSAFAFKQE
UniProt Q5JSH3: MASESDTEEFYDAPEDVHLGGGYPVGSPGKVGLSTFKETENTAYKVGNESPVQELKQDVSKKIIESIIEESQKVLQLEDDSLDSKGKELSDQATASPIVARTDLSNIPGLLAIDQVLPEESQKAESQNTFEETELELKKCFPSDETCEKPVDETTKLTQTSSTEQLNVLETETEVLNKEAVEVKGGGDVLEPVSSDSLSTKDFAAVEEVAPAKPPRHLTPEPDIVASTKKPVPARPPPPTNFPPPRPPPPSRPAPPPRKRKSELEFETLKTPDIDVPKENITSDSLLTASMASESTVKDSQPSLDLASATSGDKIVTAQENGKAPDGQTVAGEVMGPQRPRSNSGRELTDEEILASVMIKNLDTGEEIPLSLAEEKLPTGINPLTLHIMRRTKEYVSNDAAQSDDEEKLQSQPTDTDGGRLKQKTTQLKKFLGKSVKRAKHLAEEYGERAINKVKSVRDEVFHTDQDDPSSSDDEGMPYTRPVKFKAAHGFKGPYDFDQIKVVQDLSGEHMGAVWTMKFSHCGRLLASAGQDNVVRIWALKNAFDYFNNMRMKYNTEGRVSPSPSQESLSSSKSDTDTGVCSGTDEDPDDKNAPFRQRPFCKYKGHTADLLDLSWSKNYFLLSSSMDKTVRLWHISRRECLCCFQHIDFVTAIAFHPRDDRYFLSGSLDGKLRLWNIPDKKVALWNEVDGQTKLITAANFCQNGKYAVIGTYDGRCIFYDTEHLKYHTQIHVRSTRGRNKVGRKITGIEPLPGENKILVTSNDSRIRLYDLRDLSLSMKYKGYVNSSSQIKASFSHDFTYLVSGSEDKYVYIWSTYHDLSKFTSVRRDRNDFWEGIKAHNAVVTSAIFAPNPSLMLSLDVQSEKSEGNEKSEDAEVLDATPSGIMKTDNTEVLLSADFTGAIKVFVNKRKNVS
UniProt Q15061: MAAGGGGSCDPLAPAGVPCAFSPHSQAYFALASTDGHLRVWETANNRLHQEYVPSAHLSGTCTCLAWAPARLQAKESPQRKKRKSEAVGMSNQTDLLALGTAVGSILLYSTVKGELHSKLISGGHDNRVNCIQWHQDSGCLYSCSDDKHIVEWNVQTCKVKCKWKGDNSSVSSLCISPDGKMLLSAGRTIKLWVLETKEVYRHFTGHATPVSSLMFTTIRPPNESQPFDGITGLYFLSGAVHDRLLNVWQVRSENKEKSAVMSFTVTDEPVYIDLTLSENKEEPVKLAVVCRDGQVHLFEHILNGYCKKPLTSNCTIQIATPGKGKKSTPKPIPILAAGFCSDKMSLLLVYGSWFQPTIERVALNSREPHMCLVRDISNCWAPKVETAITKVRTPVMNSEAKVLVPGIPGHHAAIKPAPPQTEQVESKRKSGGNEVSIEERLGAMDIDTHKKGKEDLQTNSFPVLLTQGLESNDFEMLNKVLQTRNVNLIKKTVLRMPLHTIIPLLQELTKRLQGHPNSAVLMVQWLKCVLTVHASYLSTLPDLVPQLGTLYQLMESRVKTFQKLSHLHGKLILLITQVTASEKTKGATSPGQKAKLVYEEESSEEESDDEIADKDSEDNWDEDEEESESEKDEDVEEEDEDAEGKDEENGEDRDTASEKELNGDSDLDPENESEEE
UniProt Q562E7: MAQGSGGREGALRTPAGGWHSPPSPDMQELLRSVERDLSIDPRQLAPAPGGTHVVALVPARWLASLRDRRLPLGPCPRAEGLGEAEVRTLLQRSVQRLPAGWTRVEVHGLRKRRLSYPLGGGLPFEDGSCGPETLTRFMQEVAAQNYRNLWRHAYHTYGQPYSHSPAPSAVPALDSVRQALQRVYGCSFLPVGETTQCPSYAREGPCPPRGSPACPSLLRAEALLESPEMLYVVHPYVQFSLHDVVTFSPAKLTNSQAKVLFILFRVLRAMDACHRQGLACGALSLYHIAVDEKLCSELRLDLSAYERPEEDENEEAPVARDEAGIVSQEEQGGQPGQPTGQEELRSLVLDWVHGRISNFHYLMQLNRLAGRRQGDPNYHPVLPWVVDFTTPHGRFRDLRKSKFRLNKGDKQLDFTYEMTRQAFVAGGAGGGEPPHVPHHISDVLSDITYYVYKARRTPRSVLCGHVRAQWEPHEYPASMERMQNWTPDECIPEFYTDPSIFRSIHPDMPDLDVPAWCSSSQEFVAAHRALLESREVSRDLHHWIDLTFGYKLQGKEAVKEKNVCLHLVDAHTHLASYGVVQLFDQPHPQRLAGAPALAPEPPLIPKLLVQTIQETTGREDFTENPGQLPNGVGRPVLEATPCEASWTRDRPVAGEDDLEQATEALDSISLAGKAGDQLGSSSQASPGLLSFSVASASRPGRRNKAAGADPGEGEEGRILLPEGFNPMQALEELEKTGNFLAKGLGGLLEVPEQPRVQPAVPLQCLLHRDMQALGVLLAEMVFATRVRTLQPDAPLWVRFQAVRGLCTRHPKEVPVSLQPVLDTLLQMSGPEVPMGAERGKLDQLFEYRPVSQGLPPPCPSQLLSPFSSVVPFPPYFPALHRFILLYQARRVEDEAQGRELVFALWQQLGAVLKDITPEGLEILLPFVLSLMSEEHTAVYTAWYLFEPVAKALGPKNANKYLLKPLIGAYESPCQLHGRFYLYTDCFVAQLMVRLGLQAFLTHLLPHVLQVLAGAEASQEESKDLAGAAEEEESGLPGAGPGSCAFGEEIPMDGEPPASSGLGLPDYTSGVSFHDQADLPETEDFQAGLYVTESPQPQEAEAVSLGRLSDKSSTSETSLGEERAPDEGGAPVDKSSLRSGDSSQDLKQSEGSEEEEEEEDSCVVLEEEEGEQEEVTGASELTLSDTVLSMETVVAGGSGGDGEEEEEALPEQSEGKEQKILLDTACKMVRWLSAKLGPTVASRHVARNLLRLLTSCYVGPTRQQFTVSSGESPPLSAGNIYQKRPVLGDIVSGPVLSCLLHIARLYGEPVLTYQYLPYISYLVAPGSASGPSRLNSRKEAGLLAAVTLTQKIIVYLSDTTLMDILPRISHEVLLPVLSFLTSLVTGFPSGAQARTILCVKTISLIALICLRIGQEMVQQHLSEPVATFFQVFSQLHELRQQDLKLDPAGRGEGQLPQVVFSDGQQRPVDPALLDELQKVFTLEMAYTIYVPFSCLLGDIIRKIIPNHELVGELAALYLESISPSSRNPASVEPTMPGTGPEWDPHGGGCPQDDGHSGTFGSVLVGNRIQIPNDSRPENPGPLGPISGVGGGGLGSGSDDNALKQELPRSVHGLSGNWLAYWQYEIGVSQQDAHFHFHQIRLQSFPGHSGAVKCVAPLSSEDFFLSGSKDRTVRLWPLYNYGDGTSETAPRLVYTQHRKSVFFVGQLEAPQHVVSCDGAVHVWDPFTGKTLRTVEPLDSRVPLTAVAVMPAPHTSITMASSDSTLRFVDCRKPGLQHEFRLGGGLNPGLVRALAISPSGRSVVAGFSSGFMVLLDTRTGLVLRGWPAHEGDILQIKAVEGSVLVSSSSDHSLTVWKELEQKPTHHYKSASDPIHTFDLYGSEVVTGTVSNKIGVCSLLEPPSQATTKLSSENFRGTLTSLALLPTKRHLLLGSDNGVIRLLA
UniProt Q96S15: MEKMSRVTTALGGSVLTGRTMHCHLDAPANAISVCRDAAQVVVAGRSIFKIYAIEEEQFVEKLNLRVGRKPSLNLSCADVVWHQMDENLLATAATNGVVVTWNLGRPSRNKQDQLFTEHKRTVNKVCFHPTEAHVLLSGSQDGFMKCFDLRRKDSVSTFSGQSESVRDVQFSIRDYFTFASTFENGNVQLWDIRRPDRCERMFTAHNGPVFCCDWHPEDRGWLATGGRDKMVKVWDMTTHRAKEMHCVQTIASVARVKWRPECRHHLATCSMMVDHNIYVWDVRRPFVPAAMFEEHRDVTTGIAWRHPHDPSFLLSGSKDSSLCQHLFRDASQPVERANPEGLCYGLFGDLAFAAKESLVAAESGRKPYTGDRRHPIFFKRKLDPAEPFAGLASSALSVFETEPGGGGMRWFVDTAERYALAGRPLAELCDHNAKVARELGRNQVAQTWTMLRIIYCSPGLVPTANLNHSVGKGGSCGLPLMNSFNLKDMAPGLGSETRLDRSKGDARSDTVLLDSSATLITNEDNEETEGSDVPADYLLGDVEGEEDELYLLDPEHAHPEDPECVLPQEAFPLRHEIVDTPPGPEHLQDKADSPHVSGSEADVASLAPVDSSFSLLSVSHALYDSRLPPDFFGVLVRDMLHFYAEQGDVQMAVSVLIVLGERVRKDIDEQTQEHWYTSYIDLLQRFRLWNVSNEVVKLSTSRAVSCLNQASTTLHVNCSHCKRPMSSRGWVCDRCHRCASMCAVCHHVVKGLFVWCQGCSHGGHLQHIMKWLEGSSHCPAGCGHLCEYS
UniProt P98170, whole entry, looked up: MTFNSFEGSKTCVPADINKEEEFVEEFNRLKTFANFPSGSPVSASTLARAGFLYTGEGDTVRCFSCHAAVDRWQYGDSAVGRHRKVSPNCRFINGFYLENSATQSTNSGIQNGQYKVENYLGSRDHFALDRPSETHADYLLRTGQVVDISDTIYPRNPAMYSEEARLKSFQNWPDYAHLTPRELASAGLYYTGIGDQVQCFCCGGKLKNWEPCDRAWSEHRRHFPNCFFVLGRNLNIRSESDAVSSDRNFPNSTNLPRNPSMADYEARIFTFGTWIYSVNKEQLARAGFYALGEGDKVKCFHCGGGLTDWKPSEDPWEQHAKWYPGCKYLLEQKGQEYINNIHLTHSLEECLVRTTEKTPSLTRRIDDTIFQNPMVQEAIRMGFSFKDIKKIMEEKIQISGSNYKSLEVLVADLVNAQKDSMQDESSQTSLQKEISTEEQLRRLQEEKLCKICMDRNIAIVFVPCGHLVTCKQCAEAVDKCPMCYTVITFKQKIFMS
UniProt Q9H1Z4: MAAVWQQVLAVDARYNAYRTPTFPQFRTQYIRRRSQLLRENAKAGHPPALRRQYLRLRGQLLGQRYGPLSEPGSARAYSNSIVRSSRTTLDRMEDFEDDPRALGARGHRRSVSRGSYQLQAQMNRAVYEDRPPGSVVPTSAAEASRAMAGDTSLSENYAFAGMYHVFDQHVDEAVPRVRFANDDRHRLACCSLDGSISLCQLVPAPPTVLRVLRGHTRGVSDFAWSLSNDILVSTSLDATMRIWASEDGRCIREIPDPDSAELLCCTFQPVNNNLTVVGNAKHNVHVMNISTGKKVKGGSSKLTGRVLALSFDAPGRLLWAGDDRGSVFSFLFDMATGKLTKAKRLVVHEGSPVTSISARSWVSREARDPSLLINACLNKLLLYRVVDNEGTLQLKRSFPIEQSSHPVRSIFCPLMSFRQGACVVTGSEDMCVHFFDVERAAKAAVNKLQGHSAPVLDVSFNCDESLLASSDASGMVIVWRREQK

| Target | probe-labelled cysteine peptide fold change (10 µM) | probe-labelled cysteine peptide fold change (50 µM) |
| --- | --- | --- |
| WDFY4_Q6ZS81_582_IFLDDECYR (UniProt Q6ZS81) | -0.0212 | -0.613 |
| WDHD1_O75717_170_VWQISDQTCAISWPLLQK (UniProt O75717) | -0.0868 | 0.109 |
| WDR26_Q9H7D7_577_KYQGVTQGFYTIHSCFGGHNEDFIASGSEDHK (UniProt Q9H7D7) | 0.305 | 0.234 |
| WDR77_Q9BQA1_26_EWNLPPNAPACMER (UniProt Q9BQA1) | -0.146 | -0.099 |
| WDFY1_Q8IWB7_204_GHEGSVACLWWDPIQR (UniProt Q8IWB7) | 0.199 | 0.112 |
| WDR37_Q9Y2I8_330_TANLYDVETSELVHSLTGHDQELTHCCTHPTQR (UniProt Q9Y2I8) | 0.146 | -0.151 |
| WDR70_Q9NW82_302_GEFMTCSNDATVR (UniProt Q9NW82) | 0.0185 | 0.175 |
| WDFY4_Q6ZS81_2251_KCGNIK (UniProt Q6ZS81) | -0.298 | -0.542 |
| WDFY4_Q6ZS81_1665_FRDGLCAGSWVER (UniProt Q6ZS81) | 0.0168 | -0.24 |
| WDR44_Q5JSH3_147_CFPSDETCEKPVDETTK (UniProt Q5JSH3) | -0.441 | -0.129 |
| WDR43_Q15061_140_VNCIQWHQDSGCLYSCSDDK (UniProt Q15061) | 0.0617 | 0.2 |
| WDFY4_Q6ZS81_264_AQNLSIIQYLQATDCVR (UniProt Q6ZS81) | 0.197 | -0.105 |
| WDR6_Q9NNW5_26_ATSELILLPVTGLECVGDR (UniProt Q9NNW5) | 0.132 | 0.26 |
| WDR74_Q6RFH5_201_LVTCTGYHQVR (UniProt Q6RFH5) | 0.00749 | -0.115 |
| WDR44_Q5JSH3_642_ECLCCFQHIDFVTAIAFHPR (UniProt Q5JSH3) | 0.254 | 0.531 |
| WEE1_P30291_323_RLDGCIYAIK (UniProt P30291) | -0.103 | 0.165 |
| WDR37_Q9Y2I8_8_PTESASCSTAR (UniProt Q9Y2I8) | -0.0903 | -0.545 |
| XAF1_Q6GPH4_105_LELHESYCGSR (UniProt Q6GPH4) | 0.0807 | 0.166 |
| WDR33_Q9C0J8_120_CPVFVVR (UniProt Q9C0J8) | 0.06 | 0.0127 |
| WRN_Q14191_1090_EHCYNQVPVELSTEK (UniProt Q14191) | -0.552 | -0.379 |
| WDR1_O75083_507_GPVTDVAYSHDGAFLAVCDASK (UniProt O75083) | 0.0722 | 0.166 |

| Target | probe-labelled cysteine peptide fold change (10 µM) | probe-labelled cysteine peptide fold change (50 µM) |
| --- | --- | --- |
| WDR81_Q562E7_1226_ILLDTACK (UniProt Q562E7) | -0.218 | -0.0214 |
| WDR7_Q9Y4E6_326_ELLICPPVTR (UniProt Q9Y4E6) | 0.0559 | 0.0701 |
| XPO1_O14980_498_NLNTLCWAIGSISGAMHEEDEK (UniProt O14980) | -0.0104 | 0.087 |
| XPNPEP1_Q9NQW7_279_ALCADLSPR (UniProt Q9NQW7) | 0.19 | 0.0511 |
| WIPI2_Q9Y4P8-2_401_AYTDDLGAVGGACLEDEASALRLDEDSEHPPMILR (UniProt Q9Y4P8) | -0.404 | -0.485 |
| WDR43_Q15061_307_DGQVHLFEHILNGYCK (UniProt Q15061) | 0.00548 | -0.2 |
| WDR24_Q96S15_189_VCFHPTEAHVLLSGSQDGFMK (UniProt Q96S15) | 0.316 | 0.359 |
| WDR47_O94967_672_GSIYCVAWSPCGQLLATGSNDK (UniProt O94967) | -0.439 | -1.25 |
| WDFY4_Q6ZS81_2226_TEDFVSCIENYRR (UniProt Q6ZS81) | -0.0638 | -0.222 |
| WDR3_Q9UNX4_44_YVAVPACEHVFIWDLR (UniProt Q9UNX4) | 0.186 | 0.448 |
| WDR75_Q8IWA0_546_HLCFGR (UniProt Q8IWA0) | 0.0497 | 0.149 |
| WRN_Q14191_1367_HGPDSGLQPSCDVNK (UniProt Q14191) | -0.126 | -0.11 |
| XPO1_O14980_498_NLNTLCWAIGSISGAMHEEDEKR (UniProt O14980) | -0.0055 | -0.265 |
| XAF1_Q6GPH4_62_LEHQQVGCTMCQQSMQK (UniProt Q6GPH4) | -0.108 | -0.43 |
| WDFY3_Q8IZQ1_3027_EPVGQIVCTDK (UniProt Q8IZQ1) | -0.225 | -0.00578 |
| WDR12_Q9GZL7_185_ALHCCR (UniProt Q9GZL7) | 0.0695 | -0.0462 |
| WWP2_O00308_506_FLCHSNALPSHVK (UniProt O00308) | -0.0825 | 0.141 |
| WDR70_Q9NW82_383_QAHDSGTDTSCVTFSYDGNVLASR (UniProt Q9NW82) | 0.268 | -0.00931 |
| WDR26_Q9H7D7_153_LIGQHLNGLGLNQTVDLLMQESGCR (UniProt Q9H7D7) | -0.156 | -0.032 |
| WDHD1_O75717_156_DIFLASASCDGSVR (UniProt O75717) | 0.0733 | 0.308 |
| WDR3_Q9UNX4_625_IWGLDFGDCHK (UniProt Q9UNX4) | 0.0263 | 0.146 |

Single records, as listed above. Values in the order: probe-labelled cysteine peptide fold change (10 µM)	probe-labelled cysteine peptide fold change (50 µM)
WDR81_Q562E7_1226_ILLDTACK (UniProt Q562E7) is listed with -0.218	-0.0214
XPO1_O14980_498_NLNTLCWAIGSISGAMHEEDEKR (UniProt O14980) is listed with -0.0055	-0.265
WDR24_Q96S15_189_VCFHPTEAHVLLSGSQDGFMK (UniProt Q96S15) is listed with 0.316	0.359
WDR3_Q9UNX4_44_YVAVPACEHVFIWDLR (UniProt Q9UNX4) is listed with 0.186	0.448

Next part

| Target | probe-labelled cysteine peptide fold change (10 µM) | probe-labelled cysteine peptide fold change (50 µM) |
| --- | --- | --- |
| WDR76_Q9H967_66_VYLAPFSLSNYQLDQLMCPK (UniProt Q9H967) | 0.0473 | 0.35 |
| WDR91_A4D1P6_684_LFAFDSEGNYMLTCSATGGVIYK (UniProt A4D1P6) | 0.152 | 0.4 |
| WDFY3_Q8IZQ1_908_CSAALADEDHSLHPPLQR (UniProt Q8IZQ1) | 0.237 | 0.252 |
| WDR3_Q9UNX4_307_ILACHGTDSVLELFCILSK (UniProt Q9UNX4) | 0.0303 | 0.246 |
| WDR1_O75083_438_CFSIDNPGYEPEVVAVHPGGDTVAIGGVDGNVR (UniProt O75083) | -0.0308 | -0.196 |
| WDR36_Q8NI36_866_SLSPDCGGSIEVMQSFLK (UniProt Q8NI36) | 0.0135 | 0.474 |
| WDR91_A4D1P6_366_KPEASGPEAEPCPELHTEPVEPLTR (UniProt A4D1P6) | -0.183 | -0.178 |
| WDR91_A4D1P6_704_VLESCLSLGGHR (UniProt A4D1P6) | 0.207 | 0.18 |
| WDR41_Q9HAD4_340_QLISCSEDGSVR (UniProt Q9HAD4) | 0.062 | -0.00141 |
| WHAMM_Q8TF30_435_EKQDEVVYYDPCENPEELK (UniProt Q8TF30) | -0.569 | -0.0123 |
| WRN_Q14191_1115_LYSYKPCDK (UniProt Q14191) | -0.116 | -0.708 |
| XIAP_P98170_12_TCVPADINKEEEFVEEFNR (UniProt P98170) | -0.356 | -0.413 |
| WDR12_Q9GZL7_205_FCSGSWDK (UniProt Q9GZL7) | -0.147 | -0.0496 |
| WIZ_O95785_1048_CEFCGEFFENR (UniProt O95785) | 0.292 | 0.422 |
| WDR37_Q9Y2I8_417_INVCVGQK (UniProt Q9Y2I8) | 0.00743 | -0.227 |
| WDR92_Q96MX6_213_NGVCSLEFDRK (UniProt Q96MX6) | 0.146 | 0.0597 |
| WDR25_Q64LD2_429_FTCPSLALHPR (UniProt Q64LD2) | -0.0138 | 0.0311 |
| WDR1_O75083_438_KCFSIDNPGYEPEVVAVHPGGDTVAIGGVDGNVR (UniProt O75083) | -0.369 | -0.935 |
| WDR3_Q9UNX4_448_STLQCIR (UniProt Q9UNX4) | 0.178 | 0.222 |
| XIAP_P98170_351_GQEYINNIHLTHSLEECLVR (UniProt P98170) | 0.13 | -0.242 |
| WWOX_Q9NZC7_155_SFALHGAHVILACR (UniProt Q9NZC7) | 0.00648 | 0.191 |

Rewritten bar-delimited: entries from further up
Target | probe-labelled cysteine peptide fold change (10 µM) | probe-labelled cysteine peptide fold change (50 µM)
WDR3_Q9UNX4_307_ILACHGTDSVLELFCILSK (UniProt Q9UNX4) | 0.0303 | 0.246
XIAP_P98170_351_GQEYINNIHLTHSLEECLVR (UniProt P98170) | 0.13 | -0.242

(list continues)

| Target | probe-labelled cysteine peptide fold change (10 µM) | probe-labelled cysteine peptide fold change (50 µM) |
| --- | --- | --- |
| WDFY1_Q8IWB7_290_CEQPFFWNIK (UniProt Q8IWB7) | -0.0485 | -0.104 |
| WRN_Q14191_1070_ANTESQSLILQANEELCPK (UniProt Q14191) | -0.188 | -0.54 |
| WDR61_Q9GZS3_303_IVSVGDDQEIHIYDCPI (UniProt Q9GZS3) | -0.278 | 0.119 |
| WDFY1_Q8IWB7_317_KCGQAVCGK (UniProt Q8IWB7) | 0.0561 | -0.611 |
| WDR13_Q9H1Z4_423_QGACVVTGSEDMCVHFFDVER (UniProt Q9H1Z4) | 0.278 | -0.162 |
| WDR12_Q9GZL7_97_YTAPQPEQCMFHDDWISSIK (UniProt Q9GZL7) | 0.107 | 0.0834 |
| WDYHV1_Q96HA8_165_DSSGNWREPPPPYPCIETGDSK (UniProt Q96HA8) | -0.175 | -0.355 |
| WDR62_O43379_599_DIQMISCGADK (UniProt O43379) | 0.0358 | -0.419 |
| WDR13_Q9H1Z4_432_QGACVVTGSEDMCVHFFDVER (UniProt Q9H1Z4) | -0.154 | -0.222 |
| WWP2_O00308_88_VWSCHTLR (UniProt O00308) | 0.111 | 0.213 |
| WDFY4_Q6ZS81_88_AWEHSVGIICFPSLQR (UniProt Q6ZS81) | -0.23 | 0.423 |
| WDFY4_Q6ZS81_2352_EAEGEPDEVGVDCTQLTFFPALHESLHSEDFLELCR (UniProt Q6ZS81) | -0.125 | -0.598 |
| WDR47_O94967_322_SLNPALDGLTCGLTSHDK (UniProt O94967) | -0.159 | -0.017 |
| XAB2_Q9HCS7_587_DLFEQALDGCPPK (UniProt Q9HCS7) | 0.161 | 0.156 |
| WDR36_Q8NI36_311_TDGHPVMAAGSPCGHIGLWDLEDKK (UniProt Q8NI36) | 0.0762 | -0.28 |
| WDR11_Q9BZH6_83_ENYHHNIGSPYCLR (UniProt Q9BZH6) | -0.289 | -0.894 |
| XPC_Q01831_558_WVCVDCVHGVVGQPLTCYK (UniProt Q01831) | 0.0771 | 0.173 |
| WDFY1_Q8IWB7_287_EEAPQWLESDSCQK (UniProt Q8IWB7) | 0.0438 | 0.08 |
| WDFY3_Q8IZQ1_896_NQQVMCEAGLHAR (UniProt Q8IZQ1) | 0.129 | 0.165 |
| WDR82_Q6UXN9_153_PVCSFDPEGLIFAAGVNSEMVK (UniProt Q6UXN9) | 0.151 | 0.23 |
| WDR36_Q8NI36_311_TDGHPVMAAGSPCGHIGLWDLEDK (UniProt Q8NI36) | 0.00283 | 0.0431 |
